Two molecules from article doi:10.1101/2020.05.08.085126 can be followed below.

These are yes or no findings as the source states them, for the method shown.

The target in assay [1] is STF^85-190 R151A mutant (Medicago truncatula) (UniProt G0ZGT3). As to the kind of experiment: native gel or EMSA.
Assay [2] deals with STF^85-190 F142Y/Y143N mutant (Medicago truncatula) (UniProt G0ZGT3). The assay is described as follows: native gel or EMSA.

B1: STF^85-190 R151A mutant (domain or fragment, UniProt G0ZGT3 85-190)
chain: NNPSAAVVVSSRWNPTPEQLRALEELYRRGTRTPSAEQIQQITAQLRKFGKIEGKNVFYWFQNHKAAERQKRRRQMESAAAEFDSAIEKKDLGASRTVFEVEHTKN
As to B1, the binding result in assay [1] was “no binding”.

B2: STF^85-190 F142Y/Y143N mutant (domain or fragment, UniProt G0ZGT3 85-190)
chain: NNPSAAVVVSSRWNPTPEQLRALEELYRRGTRTPSAEQIQQITAQLRKFGKIEGKNVYNWFQNHKARERQKRRRQMESAAAEFDSAIEKKDLGASRTVFEVEHTKN
As to B2, the binding result in assay [2] is reported as “no binding”.
